Results published in PMC12661795.

The chains behind the UniProt entries cited, without tags or fusion partners.
UniProt O77059: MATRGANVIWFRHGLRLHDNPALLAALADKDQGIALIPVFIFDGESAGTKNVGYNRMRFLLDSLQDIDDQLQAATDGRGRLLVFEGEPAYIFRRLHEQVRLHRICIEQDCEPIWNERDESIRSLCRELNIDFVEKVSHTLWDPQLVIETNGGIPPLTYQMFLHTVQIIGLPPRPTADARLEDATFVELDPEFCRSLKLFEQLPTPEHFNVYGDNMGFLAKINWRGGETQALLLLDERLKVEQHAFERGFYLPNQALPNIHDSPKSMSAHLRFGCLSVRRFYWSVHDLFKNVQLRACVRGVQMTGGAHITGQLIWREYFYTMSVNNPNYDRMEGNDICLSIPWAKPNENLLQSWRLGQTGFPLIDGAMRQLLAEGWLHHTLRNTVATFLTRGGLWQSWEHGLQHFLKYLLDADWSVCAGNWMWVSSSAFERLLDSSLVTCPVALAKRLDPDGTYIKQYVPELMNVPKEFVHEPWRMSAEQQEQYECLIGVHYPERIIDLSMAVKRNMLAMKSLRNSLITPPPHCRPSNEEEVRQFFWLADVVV

Columns and labels:
[1] = biological target: HACRY, a hemagglutinin (HA)-tagged form of Drosophila CRYPTOCHROME (dCRY) (Drosophila melanogaster) (UniProt O77059); assay: affinity purification with mass spectrometry; Co-IP of HACRY from head extracts of repo > HACRY flies (glia), 50 male heads per sample, 12:12 LD, collected at ZT0 and ZT1; CantonS controls as filter; 3 independent samples
[2] = biological target: HACRY, a hemagglutinin (HA)-tagged form of Drosophila CRYPTOCHROME (dCRY) (Drosophila melanogaster) (UniProt O77059); assay: affinity purification with mass spectrometry; Co-IP and MS from heads of flies expressing HACRY in TIM-positive cells, at ZT0 and after a 15 min light pulse at the same ZT; 40-kDa species identified
[3] = biological target: HACRY, a hemagglutinin (HA)-tagged form of Drosophila CRYPTOCHROME (dCRY) (Drosophila melanogaster) (UniProt O77059); assay: affinity purification with mass spectrometry; Co-IP of HACRY from head extracts of GMR > HACRY flies (photoreceptors), 50 male heads per sample, 12:12 LD, collected at ZT0 and ZT1; CantonS controls as filter; 3 independent samples

Binder | binding [1] | binding [2] | binding [3]
RNA-binding protein SQUID (protein, UniProt Q08473 1-344) MAENKQVDTEINGEDFTKDVTADGPGSENGDAGAAGSTNGSSDNQSAASGQRDDDRKLFVGGLSWETTEKELRDHFGKYGEIESINVKTDPQTGRSRGFAFIVFTNTEAIDKVSAADEHIINSKKVDPKKAKARHGKIFVGGLTTEISDEEIKTYFGQFGNIVEVEMPFDKQKSQRKGFCFITFDSEQVVTDLLKTPKQKIAGKEVDVKRATPKPENQMMGGMRGGPRGGMRGGRGGYGGRGGYNNQWDGQGSYGGYGGGYGGYGAGGYGDYYAGGYYNGYDYGYDGYGYGGGFEGNGYGGGGGGNMGGGRGGPRGGGGPKGGGGFNGGKQRGGGGRQQRHQPY | binds | binds | binds
HRB27C (protein, UniProt P48809 1-421) MEEDERGKLFVGGLSWETTQENLSRYFCRFGDIIDCVVMKNNESGRSRGFGFVTFADPTNVNHVLQNGPHTLDGRTIDPKPCNPRTLQKPKKGGGYKVFLGGLPSNVTETDLRTFFNRYGKVTEVVIMYDQEKKKSRGFGFLSFEEESSVEHVTNERYINLNGKQVEIKKAEPRDGSGGQNSNNSTVGGAYGKLGNECSHWGPHHAPINMMQGQNGQMGGPPLNMPIGAPNMMPGYQGWGTSPQQQQYGYGNSGPGSYQGWGAPPGPQGPPPQWSNYAGPQQTQGYGGYDMYNSTSTGAPSGPSGGGSWNSWNMPPNSAGPTGAPGAGAGTATDMYSRAQAWATGGPSTTGPVGGMPRTGPGNSASKSGSEYDYGGYGSGYDYDYSNYVKQEGASNYGAGPRSAYGNDSSTQPPYATSQAV | binds | – | binds
PEP (protein, UniProt P41073 1-716) MVSVKVNGNPQNRLVNNAKVNGNMAFRGNQNRNRNFGGGNNNYGGPMGANRMGGMNMSPWESQNPGGGQFGNNMRQGGGQMNAQAINLANNLLNNLFRNQNPPSLLDLPRGGGGMGNRNQRGGPMVSRGGGAGNRLNNRRGQGGGFQNRGATGSGPKPPPKQGGGGIRKQNAFDRAKKLLAKNANQNKKKEPTPGEKKIESPTKESPYASVPNDMFYCHLCKKHMWDANSFENHIKGRTHLMMREGIEESYRLKANMIRQEAKIAEQLKSIEFDRLKRMGKSKQRQLDYCTMCDLNFHGHISTHRKSEGHLQLKKFLHPKCIECNKEFATRIDYDTHLLSAEHLKKAAENNTKVGERKRQTLPISTEEEETRDLRLPQKRKKKPVKKEGEAADGEAKKEGAGDGEGAEGDEAEGEEAKEGEEAADETKEGDELNESQEEEEVALPVDPEDCILDFNDGDEIPSEVDTRLPKYNWQRAVGPGLISKLECYECSVCSKFFDTEVTAEIHSRTATHHRNFLKFINEKSSDTKIAQKRAAAALEENERKKRKVEEAEAPAAEGAAEETTEGAEGELYDPSEATGDDEDVEMVDDNAEGEGEGEGDEEAEAEVEEDGAGQDNGEEEMEAQEEEGQEGEQEPEPEPAPVQTPAPAEPAPPAKTPAKTPTKAAAPAAVASPAAAATSADASPSPAKKATPARAAAGAKATPQRQRARGRYNRY | – | – | binds
HRB87F (protein, UniProt P48810 1-385) MAEQNDSNGNYDDGEEITEPEQLRKLFIGGLDYRTTDDGLKAHFEKWGNIVDVVVMKDPKTKRSRGFGFITYSQSYMIDNAQNARPHKIDGRTVEPKRAVPRQEIDSPNAGATVKKLFVGGLRDDHDEECLREYFKDFGQIVSVNIVSDKDTGKKRGFAFIEFDDYDPVDKIILQKTHSIKNKTLDVKKAIAKQDMDRQGGGGGRGGPRAGGRGGQGDRGQGGGGWGGQNRQNGGGNWGGAGGGGGFGNSGGNFGGGQGGGSGGWNQQGGSGGGPWNNQGGGNGGWNGGGGGGYGGGNSNGSWGGNGGGGGGGGGFGNEYQQSYGGGPQRNSNFGNNRPAPYSQGGGGGGFNKGNQGGGQGFAGNNYNTGGGGQGGNMGGGNRRY | – | – | binds

No constants are given. Whether binding was seen depends on the method and setting. Binding seen in cells or lysates may run through a third protein. A yes stands for co-enrichment or nearness to the bait. Other partners may have been found.
